# Screening data

From PubChem BioAssay record AID1053133 (Broad Institute, 2014).

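Plate-reader measure of the Venus reporter marking one vaccinia stage in infected cells (the cell line is not named here); read time unknown.
The test concentration is not given here.
Percent change in Venus reporter signal; lower (more negative) values mean stronger inhibition of that viral stage.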

Values are in %.
How 0% and 100% were set is not given here.
Common to all entries: measured here: Venus reporter, other viral stage.
This is a side read-out of the assay, for part of the compounds, not drawn at random.

SMILES,activity change (Venus) (%)
C[C@@H]1CN([C@@H](C)CO)C(=O)c2c(c3ccccc3n2C)-c2ccccc2CO[C@@H]1CN(C)Cc1ccc(F)cc1,-41.08
Cc1noc(C)c1NC(=O)Nc1ccc2c(c1)C(=O)N([C@@H](C)CO)C[C@@H](C)[C@@H](CN(C)Cc1ccc(C(F)(F)F)cc1)OCCCC[C@@H](C)O2,-43.76
O=C1CN(S(=O)(=O)Cc2ccccc2)C[C@@H]2[C@@H](c3ccc(C#CCC4CCCC4)cc3)[C@H](CO)N12,-68.35
CNC[C@@H]1Oc2c(NC(=O)Nc3ccc(C(F)(F)F)cc3)cccc2C(=O)N([C@H](C)CO)C[C@@H]1C,-22.17
C[C@@H]1CN([C@H](C)CO)C(=O)c2cc(NS(=O)(=O)c3ccc(Cl)cc3)ccc2O[C@@H](C)CCCCO[C@@H]1CN(C)C(=O)C1CCCCC1,-56.19
C[C@@H]1CN([C@@H](C)CO)S(=O)(=O)c2ccc(C#Cc3ccccc3)cc2O[C@@H]1CN(C)S(=O)(=O)c1cn(C)cn1,-31.2
Cc1ccc(S(=O)(=O)Nc2ccc3c(c2)C(=O)N([C@H](C)CO)C[C@@H](C)[C@H](CN(C)Cc2ccc(C(F)(F)F)cc2)OCCCC[C@H](C)O3)cc1,-85.74
C[C@H]1CN([C@@H](C)CO)S(=O)(=O)c2ccc(C#CC3CCCC3)cc2O[C@H]1CN(C)Cc1cccnc1,-68.06
C[C@@H]1CCCCO[C@@H](CN(C)Cc2ccccc2)[C@H](C)CN([C@@H](C)CO)C(=O)c2cc(NC(=O)C3CCCCC3)ccc2O1,-47.45
O=S(=O)(c1ccccc1)N1CCCCN2[C@H](CO)[C@H](c3ccc(C#Cc4ccccc4)cc3)[C@@H]2C1,-37.84
C[C@H]1CCCCO[C@H](CN(C)S(=O)(=O)c2ccc(F)cc2)[C@@H](C)CN([C@@H](C)CO)C(=O)c2cc(NS(=O)(=O)c3ccccc3)ccc2O1,-35.21
C[C@H](CO)N1C[C@H](C)[C@@H](CN(C)Cc2ccc(C(F)(F)F)cc2)OCCCC[C@H](C)Oc2ccc(NC(=O)CCC(F)(F)F)cc2C1=O,-61.62
C[C@@H]1CN([C@@H](C)CO)C(=O)c2cc(NC(=O)Nc3ccc4c(c3)OCO4)ccc2O[C@@H]1CN(C)Cc1ccc(Oc2ccccc2)cc1,-36.83
Cc1ccc(-c2cnc3c(c2)C(=O)N([C@H](C)CO)C[C@@H](C)[C@H](CN(C)CC2CCCC2)O3)cc1,-23.21
Cc1noc(C)c1S(=O)(=O)Nc1ccc2c(c1)C(=O)N([C@H](C)CO)C[C@H](C)[C@@H](CN(C)Cc1ccc(Cl)c(Cl)c1)OCCCC[C@H](C)O2,-52.76
COc1ccc(CN(C)C[C@H]2OCCCC[C@@H](C)Oc3ccc(NC(=O)Nc4ccc(F)cc4)cc3C(=O)N([C@@H](C)CO)C[C@H]2C)cc1,-44.34
COc1cccc(C#Cc2ccc3c(c2)O[C@H](CN(C)C(=O)CN2CCOCC2)[C@@H](C)CN([C@@H](C)CO)S3(=O)=O)c1,-48.1
C[C@H]1CN([C@@H](C)CO)C(=O)c2cc(C#CCc3ccccc3)cnc2O[C@@H]1CN(C)CC1CCCC1,-60.23
N#Cc1cccc(-c2ccc3c(c2)[C@H]2[C@H](CCN2C(=O)c2ccccc2F)[C@@H](CO)N3)c1,-26.01
Cc1noc(C)c1S(=O)(=O)Nc1ccc2c(c1)C(=O)N([C@H](C)CO)C[C@@H](C)[C@@H](CN(C)S(=O)(=O)c1ccccc1)OCCCC[C@H](C)O2,-17.26
O=C(Nc1ccccc1F)N1C[C@@H]2N[C@H](C1)C2c1ccc(-c2ccccc2)cc1 (stereo partly shown),-85.13
O=C(c1cccnc1)N1CC(=O)N2[C@H](C1)[C@H](c1ccc(/C=C/c3ccccc3)cc1)[C@@H]2CO,-34.36
CCO[C@H]1OC(C(=O)N2CCN(Cc3ccc4c(c3)OCO4)CC2)=C[C@@H](C2CCCCC2)[C@@H]1CCCO,-36.56
COc1cccc(C#Cc2cnc3c(c2)C(=O)N([C@H](C)CO)C[C@@H](C)[C@@H](CN(C)C(=O)C2CCCCC2)O3)c1,-35.51
C[C@@H]1CCCCO[C@H](CN(C)Cc2ccc(Cl)c(Cl)c2)[C@@H](C)CN([C@@H](C)CO)C(=O)c2cc(NC(=O)Nc3ccc4c(c3)OCO4)ccc2O1,-27.41
O=C(C[C@H]1C[C@@H]2c3cc(NC(=O)Nc4ccc(C(F)(F)F)cc4)ccc3O[C@@H]2[C@@H](CO)O1)NCc1ccc(Cl)cc1,-46.01
C[C@H](CO)N1C[C@H](C)[C@H](CN(C)S(C)(=O)=O)Oc2ncc(C#Cc3ccc(C(F)(F)F)cc3)cc2C1=O,-25.89
C[C@@H]1CN([C@H](C)CO)C(=O)c2cc(C#Cc3ccncc3)cnc2O[C@H]1CN(C)C(=O)c1ccccc1F,-27.75
CC(C)NC(=O)Nc1ccc2c(c1)C(=O)N([C@H](C)CO)C[C@@H](C)[C@@H](CN(C)Cc1ccc(C(F)(F)F)cc1)OCCCC[C@H](C)O2,-43.72
N#Cc1ccc(-c2ccc([C@H]3[C@H]4CN(C(=O)C5CCCC5)CC(=O)N4[C@H]3CO)cc2)cc1,-36.47
COc1ccc(S(=O)(=O)N2CC[C@@H]3[C@H](CO)Nc4ccc(-c5cccc(C#N)c5)cc4[C@@H]32)cc1,-38.02
OC[C@H]1[C@@H](c2ccc(C#Cc3ccccc3)cc2)[C@H]2CN(CC3CCOCC3)CCCCN21,-46.74
CC(C)CC#Cc1cnc2c(c1)C(=O)N([C@@H](C)CO)C[C@@H](C)[C@@H](CN(C)Cc1ccccc1)O2,-28.38
O=C1CN(S(=O)(=O)Cc2ccccc2)C[C@@H]2[C@H](c3ccc(C#CCC4CCCC4)cc3)[C@@H](CO)N12,-33.85
COc1ccc(S(=O)(=O)N(C)C[C@@H]2OCCCC[C@H](C)Oc3ccc(NS(=O)(=O)c4ccc(Cl)cc4)cc3C(=O)N([C@H](C)CO)C[C@H]2C)cc1,-22.5
C[C@@H]1CCCCO[C@@H](CN(C)S(=O)(=O)c2ccc(F)cc2)[C@H](C)CN([C@@H](C)CO)C(=O)c2cc(NS(=O)(=O)c3ccccc3)ccc2O1,-44.69
C[C@H](CO)N1C[C@H](C)[C@H](CN(C)C(=O)[C@@H](Cc2ccccc2)N(C)C)OCc2ccccc2-c2c(n(C)c3ccccc23)C1=O,-63.81
COc1cccc(-c2ccc([C@H]3[C@H]4CN(C(=O)c5ccc(F)cc5)CCCCN4[C@H]3CO)cc2)c1,-28.5
OC[C@@H]1[C@@H](c2ccc(-c3cccc(F)c3)cc2)[C@@H]2CN(CCC(F)(F)F)CCCCN12,-34.23
C[C@@H]1CN([C@@H](C)CO)C(=O)c2cc(NS(=O)(=O)c3ccc(F)cc3)ccc2O[C@@H](C)CCCCO[C@H]1CN(C)C(=O)C1CCCCC1,-35.96
C[C@H]1CN([C@@H](C)CO)C(=O)Cc2cc(NC(=O)Nc3ccc(F)cc3)ccc2O[C@H]1CN(C)S(=O)(=O)c1cccs1,-13.41
C[C@H]1CN([C@@H](C)CO)C(=O)c2cc(NC(=O)CCCCCC(=O)Nc3ccccc3N)ccc2O[C@H]1CN(C)Cc1ccc(Cl)c(Cl)c1,-37.47
C[C@H]1CCCCO[C@H](CN(C)C(=O)C2CCCCC2)[C@@H](C)CN([C@@H](C)CO)C(=O)c2cc(NS(=O)(=O)c3cccs3)ccc2O1,-31.92
C[C@@H]1CN([C@H](C)CO)C(=O)c2cc(C#Cc3cccc(F)c3)cnc2O[C@@H]1CN(C)CC1CCCC1,-43.22
COc1ccc(S(=O)(=O)N(C)C[C@H]2Oc3cc(C#CC4CC4)ccc3S(=O)(=O)N([C@@H](C)CO)C[C@@H]2C)cc1,-59.04
C[C@H]1CN([C@@H](C)CO)S(=O)(=O)c2ccc(C3=CCCCC3)cc2O[C@@H]1CN(C)Cc1ccccc1F,-41.17
C[C@@H]1CN([C@@H](C)CO)S(=O)(=O)c2ccc(C#Cc3cccc(F)c3)cc2O[C@@H]1CN(C)S(=O)(=O)c1ccccc1F,-30.17
COc1ccc(C#Cc2ccc([C@@H]3[C@H](CO)N4CCCCN(S(=O)(=O)c5cn(C)cn5)C[C@@H]34)cc2)cc1,-84.56
Cc1noc(C)c1S(=O)(=O)Nc1ccc2c(c1)C(=O)N([C@@H](C)CO)C[C@H](C)[C@@H](CN(C)Cc1ccc(C(F)(F)F)cc1)OCCCC[C@H](C)O2,-47.9
Cc1ccc(S(=O)(=O)Nc2ccc3c(c2)C(=O)N([C@H](C)CO)C[C@@H](C)[C@@H](CN(C)Cc2ccc(-c4ccccc4)cc2)O3)cc1,-49.25
CN1[C@@H]2c3ccc(/C=C/c4ccccc4)c(=O)n3C[C@@H]2[C@@H](CO)[C@@H]1C(=O)Nc1nccs1,-27.6
COc1ccc(C#Cc2ccc([C@@H]3[C@@H](CO)N4CCCCN(S(=O)(=O)c5cn(C)cn5)C[C@H]34)cc2)cc1,-48.79
OC[C@@H]1[C@@H](c2ccc(-c3ccc(F)cc3)cc2)[C@@H]2CN(CCC(F)(F)F)CCCCN12,-50.01
Cc1ccc(-c2ccc([C@@H]3[C@@H](CO)N4CCCCN(S(=O)(=O)c5cccc(C)c5)C[C@H]34)cc2)cc1,-33.82

Some entries from above, unchanged:

SMILES,activity change (Venus) (%)
C[C@H]1CN([C@@H](C)CO)C(=O)Cc2cc(NC(=O)Nc3ccc(F)cc3)ccc2O[C@H]1CN(C)S(=O)(=O)c1cccs1,-13.41
O=S(=O)(c1ccccc1)N1CCCCN2[C@H](CO)[C@H](c3ccc(C#Cc4ccccc4)cc3)[C@@H]2C1,-37.84
COc1ccc(CN(C)C[C@H]2OCCCC[C@@H](C)Oc3ccc(NC(=O)Nc4ccc(F)cc4)cc3C(=O)N([C@@H](C)CO)C[C@H]2C)cc1,-44.34